# From patent US8450318B2 (priority 2007, dated 2013)
# For at least one compound, name, drawing or mass did not settle the structure.
# Key:
# Reovirus-1 = experiment: Antiviral activity, Reovirus-1; type: cell-based; conditions: Table 3, reference compounds
# Para-influenza-3 virus = experiment: Antiviral activity, Para-influenza-3 virus; type: cell-based; conditions: Table 3, reference compounds
structure (smiles),measurement,setting,value
Nc1ncnc2c1ncn2C[C@H](O)CO [(S)-DHPA],EC50,Reovirus-1,250 µM
same,EC50,Para-influenza-3 virus,250 µM
